# Some of the results follow.
# How the values were obtained:
# Test in all cases: glycan array binding signal (z-score within array); higher = stronger binding
# Conditions in all cases: glycan notation: IUPAC condensed, linker removed
# [1] = target: GlcNAc(a1-6)Gal(b1-4)GlcNAc
# Method in brief: (§1)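 The Consortium for Functional Glycomics database supplied 3228 glycan arrays, of which those lacking an available protein sequence were dropped. The binding signal, a within-array Z-score, was averaged across arrays of the same protein sequence and across linkers. Negative scores can be read as non-binding.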
# [2] = target: GlcNAc(b1-2)Gal(b1-3)GalNAc
# Method in brief: as §1
# [3] = target: GlcNAc(b1-2)Man(a1-3)[GlcNAc(b1-2)Man(a1-6)]Man(b1-4)GlcNAc(b1-4)GlcNAc
# Method in brief: as §1
# [4] = target: GlcNAc(b1-2)Man(a1-3)[GlcNAc(b1-2)Man(a1-6)]Man(b1-4)GlcNAc(b1-4)[Fuc(a1-6)]GlcNAc
# Method in brief: as §1
# [5] = target: GlcNAc(b1-2)Man(a1-3)[GlcNAc(b1-4)][GlcNAc(b1-2)Man(a1-6)]Man(b1-4)GlcNAc(b1-4)GlcNAc
# Method in brief: as §1
# [6] = target: GlcNAc(b1-2)Man(a1-3)[GlcNAc(b1-4)][GlcNAc(b1-2)Man(a1-6)]Man(b1-4)GlcNAc(b1-4)[Fuc(a1-6)]GlcNAc
# Method in brief: as §1
# [7] = target: GlcNAc(b1-2)[GlcNAc(b1-4)]Man(a1-3)[GlcNAc(b1-2)Man(a1-6)]Man(b1-4)GlcNAc(b1-4)GlcNAc
# Method in brief: as §1
# [8] = target: GlcNAc(b1-2)[GlcNAc(b1-4)]Man(a1-3)[GlcNAc(b1-4)][GlcNAc(b1-2)Man(a1-6)]Man(b1-4)GlcNAc(b1-4)GlcNAc
# Method in brief: as §1
# [9] = target: GlcNAc(b1-2)[GlcNAc(b1-4)]Man(a1-3)[GlcNAc(b1-4)][GlcNAc(b1-2)[GlcNAc(b1-6)]Man(a1-6)]Man(b1-4)GlcNAc(b1-4)GlcNAc
# Method in brief: as §1
# [10] = target: GlcNAc(b1-2)[GlcNAc(b1-4)]Man(a1-3)[GlcNAc(b1-4)][GlcNAc(b1-2)[GlcNAc(b1-6)]Man(a1-6)]Man(b1-4)GlcNAc(b1-4)[Fuc(a1-6)]GlcNAc
# Method in brief: as §1
# [11] = target: GlcNAc(b1-2)[GlcNAc(b1-6)]Man(a1-6)[GlcNAc(b1-2)Man(a1-3)]Man(b1-4)GlcNAc(b1-4)GlcNAc
# Method in brief: as §1
# [12] = target: GlcNAc(b1-2)[GlcNAc(b1-6)]Man(a1-6)[GlcNAc(b1-2)Man(a1-3)]Man(b1-4)GlcNAc(b1-4)[Fuc(a1-6)]GlcNAc
# Method in brief: as §1
# [13] = target: GlcNAc(b1-2)[GlcNAc(b1-6)]Man(a1-6)[GlcNAc(b1-4)][GlcNAc(b1-2)Man(a1-3)]Man(b1-4)GlcNAc(b1-4)GlcNAc
# Method in brief: as §1
# [14] = target: GlcNAc(b1-3)Fuc
# Method in brief: as §1
# [15] = target: GlcNAc(b1-3)Gal
# Method in brief: as §1
# [16] = target: GlcNAc(b1-3)Gal(b1-3)GalNAc
# Method in brief: as §1
# [17] = target: GlcNAc(b1-3)Gal(b1-4)Glc
# Method in brief: as §1
# [18] = target: GlcNAc(b1-3)Gal(b1-4)GlcNAc
# Method in brief: as §1
# [19] = target: GlcNAc(b1-3)Gal(b1-4)GlcNAc(b1-2)Man(a1-3)[GlcNAc(b1-3)Gal(b1-4)GlcNAc(b1-2)Man(a1-6)]Man(b1-4)GlcNAc(b1-4)GlcNAc
# Method in brief: as §1
# [20] = target: GlcNAc(b1-3)Gal(b1-4)GlcNAc(b1-2)Man(a1-3)[GlcNAc(b1-3)Gal(b1-4)GlcNAc(b1-2)Man(a1-6)]Man(b1-4)GlcNAc(b1-4)[Fuc(a1-6)]GlcNAc
# Method in brief: as §1
# [21] = target: GlcNAc(b1-3)Gal(b1-4)GlcNAc(b1-2)[GlcNAc(b1-3)Gal(b1-4)GlcNAc(b1-6)]Man(a1-6)[GlcNAc(b1-3)Gal(b1-4)GlcNAc(b1-2)Man(a1-3)]Man(b1-4)GlcNAc(b1-4)GlcNAc
# Method in brief: as §1
# [22] = target: GlcNAc(b1-3)Gal(b1-4)GlcNAc(b1-3)Gal(b1-4)GlcNAc
# Method in brief: as §1
# [23] = target: GlcNAc(b1-3)Gal(b1-4)GlcNAc(b1-3)Gal(b1-4)GlcNAc(b1-2)Man(a1-3)[GlcNAc(b1-3)Gal(b1-4)GlcNAc(b1-3)Gal(b1-4)GlcNAc(b1-2)Man(a1-6)]Man(b1-4)GlcNAc(b1-4)GlcNAc
# Method in brief: as §1
# [24] = target: GlcNAc(b1-3)Gal(b1-4)GlcNAc(b1-3)Gal(b1-4)GlcNAc(b1-2)Man(a1-3)[GlcNAc(b1-3)Gal(b1-4)GlcNAc(b1-3)Gal(b1-4)GlcNAc(b1-2)Man(a1-6)]Man(b1-4)GlcNAc(b1-4)[Fuc(a1-6)]GlcNAc
# Method in brief: as §1
# [25] = target: GlcNAc(b1-3)Gal(b1-4)GlcNAc(b1-3)Gal(b1-4)GlcNAc(b1-2)[GlcNAc(b1-3)Gal(b1-4)GlcNAc(b1-3)Gal(b1-4)GlcNAc(b1-6)]Man(a1-6)[GlcNAc(b1-3)Gal(b1-4)GlcNAc(b1-3)Gal(b1-4)GlcNAc(b1-2)Man(a1-3)]Man(b1-4)GlcNAc(b1-4)[Fuc(a1-6)]GlcNAc
# Method in brief: as §1
# [26] = target: GlcNAc(b1-3)Gal(b1-4)GlcNAc(b1-3)Gal(b1-4)GlcNAc(b1-3)Gal(b1-4)GlcNAc(b1-2)Man(a1-3)[GlcNAc(b1-3)Gal(b1-4)GlcNAc(b1-3)Gal(b1-4)GlcNAc(b1-3)Gal(b1-4)GlcNAc(b1-2)Man(a1-6)]Man(b1-4)GlcNAc(b1-4)GlcNAc
# Method in brief: as §1
# [27] = target: GlcNAc(b1-3)Gal(b1-4)GlcNAc(b1-3)Gal(b1-4)GlcNAc(b1-3)Gal(b1-4)GlcNAc(b1-2)Man(a1-3)[GlcNAc(b1-3)Gal(b1-4)GlcNAc(b1-3)Gal(b1-4)GlcNAc(b1-3)Gal(b1-4)GlcNAc(b1-2)Man(a1-6)]Man(b1-4)GlcNAc(b1-4)[Fuc(a1-6)]GlcNAc
# Method in brief: as §1
# [28] = target: GlcNAc(b1-3)Gal(b1-4)GlcNAc(b1-3)Gal(b1-4)GlcNAc(b1-3)Gal(b1-4)GlcNAc(b1-2)[GlcNAc(b1-3)Gal(b1-4)GlcNAc(b1-3)Gal(b1-4)GlcNAc(b1-3)Gal(b1-4)GlcNAc(b1-6)]Man(a1-6)[GlcNAc(b1-3)Gal(b1-4)GlcNAc(b1-3)Gal(b1-4)GlcNAc(b1-3)Gal(b1-4)GlcNAc(b1-2)Man(a1-3)]Man(b1-4)GlcNAc(b1-4)[Fuc(a1-6)]GlcNAc
# Method in brief: as §1
# [29] = target: GlcNAc(b1-3)Gal(b1-4)GlcNAc(b1-3)Gal(b1-4)GlcNAc(b1-3)Gal(b1-4)GlcNAc(b1-3)Gal(b1-4)GlcNAc(b1-2)Man(a1-3)[GlcNAc(b1-3)Gal(b1-4)GlcNAc(b1-3)Gal(b1-4)GlcNAc(b1-3)Gal(b1-4)GlcNAc(b1-3)Gal(b1-4)GlcNAc(b1-2)Man(a1-6)]Man(b1-4)GlcNAc(b1-4)GlcNAc
# Method in brief: as §1
# [30] = target: GlcNAc(b1-3)Gal(b1-4)GlcNAc(b1-3)Gal(b1-4)GlcNAc(b1-3)Gal(b1-4)GlcNAc(b1-3)Gal(b1-4)GlcNAc(b1-2)Man(a1-3)[GlcNAc(b1-3)Gal(b1-4)GlcNAc(b1-3)Gal(b1-4)GlcNAc(b1-3)Gal(b1-4)GlcNAc(b1-3)Gal(b1-4)GlcNAc(b1-2)Man(a1-6)]Man(b1-4)GlcNAc(b1-4)[Fuc(a1-6)]GlcNAc
# Method in brief: as §1
# [31] = target: GlcNAc(b1-3)Gal(b1-4)GlcNAc(b1-3)Gal(b1-4)GlcNAc(b1-3)Gal(b1-4)GlcNAc(b1-3)Gal(b1-4)GlcNAc(b1-2)[GlcNAc(b1-3)Gal(b1-4)GlcNAc(b1-3)Gal(b1-4)GlcNAc(b1-3)Gal(b1-4)GlcNAc(b1-3)Gal(b1-4)GlcNAc(b1-6)]Man(a1-6)[GlcNAc(b1-3)Gal(b1-4)GlcNAc(b1-3)Gal(b1-4)GlcNAc(b1-3)Gal(b1-4)GlcNAc(b1-3)Gal(b1-4)GlcNAc(b1-2)Man(a1-3)]Man(b1-4)GlcNAc(b1-4)[Fuc(a1-6)]GlcNAc
# Method in brief: as §1
# [32] = target: GlcNAc(b1-3)Gal(b1-4)GlcNAc(b1-3)Gal(b1-4)GlcNAc(b1-3)GalNAc
# Method in brief: as §1
# [33] = target: GlcNAc(b1-3)Gal(b1-4)GlcNAc(b1-3)GalNAc
# Method in brief: as §1
# [34] = target: GlcNAc(b1-3)Gal(b1-4)GlcNAc(b1-3)[GlcNAc(b1-3)Gal(b1-4)GlcNAc(b1-3)]GalNAc
# Method in brief: as §1
# [35] = target: GlcNAc(b1-3)Gal(b1-4)GlcNAc(b1-6)[Gal(b1-3)]GalNAc
# Method in brief: as §1
# [36] = target: GlcNAc(b1-3)Gal(b1-4)GlcNAc(b1-6)[GlcNAc(b1-3)Gal(b1-3)]GalNAc
# Method in brief: as §1
# [37] = target: GlcNAc(b1-3)Gal(b1-4)GlcNAc(b1-6)[GlcNAc(b1-3)]Gal(b1-4)GlcNAc
# Method in brief: as §1
binder,measurement,setting,value
Epa11 (Candida glabrata) (protein) MGSSHHHHHHSSGLVPRGSHMASSNAPNYPVGCSPSVGTQLTPGLSLEVYAYPMDGNNGYCWNATYKDPEFPRSGYLKNKLLGKADGVVGPLNFLAKNKDCSPKVDTLPAGFNFPQPITVTNFTMVLFGYLAPKQSGKYTFKLLADDLLLLNLGATNAFDCCNREATKNNLGEFLAYNLWPNQDKNVTVYLEKGVYYPLRLFFNNRDGGSQLDFSYYFNDSPAPLTDFSGMFFSVPDGAECPARI,glycan array binding signal (z-score),[1],-0.229
same,glycan array binding signal (z-score),[2],-0.181
same,glycan array binding signal (z-score),[3],-0.237
same,glycan array binding signal (z-score),[4],-0.329
same,glycan array binding signal (z-score),[5],-0.051
same,glycan array binding signal (z-score),[6],-0.428
same,glycan array binding signal (z-score),[7],-0.457
same,glycan array binding signal (z-score),[8],-0.288
same,glycan array binding signal (z-score),[9],0.044
same,glycan array binding signal (z-score),[10],2.33
same,glycan array binding signal (z-score),[11],-0.476
same,glycan array binding signal (z-score),[12],-0.296
same,glycan array binding signal (z-score),[13],-2.25
same,glycan array binding signal (z-score),[14],-0.175
same,glycan array binding signal (z-score),[15],-0.371
same,glycan array binding signal (z-score),[16],0.004
same,glycan array binding signal (z-score),[17],-0.537
same,glycan array binding signal (z-score),[18],-0.297
same,glycan array binding signal (z-score),[19],0.058
same,glycan array binding signal (z-score),[20],-0.134
same,glycan array binding signal (z-score),[21],-0.053
same,glycan array binding signal (z-score),[22],-0.214
same,glycan array binding signal (z-score),[23],0.891
same,glycan array binding signal (z-score),[24],0.989
same,glycan array binding signal (z-score),[25],1.38
same,glycan array binding signal (z-score),[26],-0.16
same,glycan array binding signal (z-score),[27],1.07
same,glycan array binding signal (z-score),[28],1.24
same,glycan array binding signal (z-score),[29],0.096
same,glycan array binding signal (z-score),[30],-0.027
same,glycan array binding signal (z-score),[31],0.953
same,glycan array binding signal (z-score),[32],0.24
same,glycan array binding signal (z-score),[33],0.353
same,glycan array binding signal (z-score),[34],0.886
same,glycan array binding signal (z-score),[35],0.058
same,glycan array binding signal (z-score),[36],0.082
same,glycan array binding signal (z-score),[37],-0.214

# Fetched one by one from above, 2 records:
binder,measurement,setting,value
Epa11 (Candida glabrata) (protein) MGSSHHHHHHSSGLVPRGSHMASSNAPNYPVGCSPSVGTQLTPGLSLEVYAYPMDGNNGYCWNATYKDPEFPRSGYLKNKLLGKADGVVGPLNFLAKNKDCSPKVDTLPAGFNFPQPITVTNFTMVLFGYLAPKQSGKYTFKLLADDLLLLNLGATNAFDCCNREATKNNLGEFLAYNLWPNQDKNVTVYLEKGVYYPLRLFFNNRDGGSQLDFSYYFNDSPAPLTDFSGMFFSVPDGAECPARI,glycan array binding signal (z-score),[31],0.953
same,glycan array binding signal (z-score),[10],2.33

# — the supplement of paper PMC8728848
